Assay [1] addresses T1, N-terminal Flag-tagged human RNase H1 (human) (UniProt O60930).
T1 sequence: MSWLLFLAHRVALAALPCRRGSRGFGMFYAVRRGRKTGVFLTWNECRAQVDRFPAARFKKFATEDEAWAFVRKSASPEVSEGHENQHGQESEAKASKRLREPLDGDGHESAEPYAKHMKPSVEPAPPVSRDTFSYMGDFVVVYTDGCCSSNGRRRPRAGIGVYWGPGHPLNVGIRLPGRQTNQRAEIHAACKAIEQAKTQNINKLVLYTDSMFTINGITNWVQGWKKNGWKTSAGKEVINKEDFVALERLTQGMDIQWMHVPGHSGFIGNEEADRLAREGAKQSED
Description: affinity purification with mass spectrometry; anti-flag beads on about 5 mg lysate of Flag-H1 or Flag-H2 stable lines; RIPA washes; DIGE CyDye labelling, 2D gel electrophoresis, spots identified by mass spectrometry.

The chains behind the UniProt entries cited, without tags or fusion partners. Residues count along the entry.
UniProt O75792: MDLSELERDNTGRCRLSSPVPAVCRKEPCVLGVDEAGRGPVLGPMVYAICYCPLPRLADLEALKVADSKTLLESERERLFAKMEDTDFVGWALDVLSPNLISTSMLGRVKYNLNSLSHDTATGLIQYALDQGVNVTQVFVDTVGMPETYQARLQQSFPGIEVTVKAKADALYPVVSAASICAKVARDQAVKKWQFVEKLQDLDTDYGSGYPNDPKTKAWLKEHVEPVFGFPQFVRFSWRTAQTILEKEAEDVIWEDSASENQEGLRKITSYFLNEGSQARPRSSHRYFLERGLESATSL
UniProt Q07021, residues 74-282: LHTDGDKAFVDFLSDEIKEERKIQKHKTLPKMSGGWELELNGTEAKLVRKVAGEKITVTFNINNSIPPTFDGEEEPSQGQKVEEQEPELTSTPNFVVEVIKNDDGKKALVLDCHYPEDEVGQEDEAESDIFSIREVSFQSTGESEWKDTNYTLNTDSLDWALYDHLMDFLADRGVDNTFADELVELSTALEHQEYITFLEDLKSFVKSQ

Assay [2] concerns the target T2, C-terminal HA-tagged human RNase H1 (human) (UniProt O60930).
T2 sequence: T1 sequence
Description: affinity purification with mass spectrometry; anti-Flag or anti-HA beads on extracts of HEK lines stably expressing Flag-H1, Flag-H2 or HA-H1; washed four times with RIPA buffer; SDS-PAGE, silver staining, band excised and identified by mass spectrometry.

In assay [3] the target is T1, N-terminal Flag-tagged human RNase H1 (human). The assay is described as above.
Assay [4] deals with N-terminal Flag-tagged human RNase H2 (human) (UniProt O75792). The description is as above.

Results are given in words; binding and its absence hold for the method and conditions named. Binding seen in cells or lysates may run through a third protein. Here binding means that the protein was enriched with, or labelled near, the bait; the list need not be complete. For some of these results: A no says only that the protein was not detected with the bait. For some of these results: Sequences can lack the tags named with a protein.

For “P32 (endogenous mitochondrial protein P32) (from UniProt Q07021 74-282)”, the binding result in assay [1] is reported as “binds”; in assay [2] it was “binds”; in assay [3], “binds”; in assay [4] it was “no binding”.
